For 34 compounds, cell count results are on record in the supplement of paper PMC12462457.

In the test the test system is OVCAR8. Description: cell count relative to DMSO vehicle (fold change); higher = more surviving senescent cells (less killing). The note with it: senescence inducer: cisplatin 10 µM 48 h, then 6 d recovery (CP senescent), exposure time 24 h.

Counter-ions that a name gives are not always drawn. ± gives the standard deviation of the averaged measurements. The list shows a part of the results. Single values are uncertain here, since repeats match poorly.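 Imaging of DAPI-stained nuclei was used to count cells; those without phalloidin-stained cytoplasm were treated as dead and excluded. Every well's count was divided by the median of same-plate vehicle wells, then averaged across two replicate plates.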

With `CCNC(=O)c1noc(-c2cc(C(C)C)c(O)cc2O)c1-c1ccc(CN2CCOCC2)cc1` [Luminespib], the cell count runs as follows: (compound dose 1 µM) 0.492 ± 0.061; (compound dose 5 µM) 0.357 ± 0.081.
For `NS(=O)(=O)Cc1noc2ccccc12` [Zonisamide] the same measures were 1.175 ± 0.0035 and 1.103 ± 0.0064.
Consider `CN1CCC(CNc2ccc3ncc(-c4cccc(OC(F)(F)F)c4)n3n2)CC1` [SGI-1776 free base], for which the cell count reads like this: (compound dose 1 µM) 1.31 ± 0.043; (compound dose 5 µM) 0.865 ± 0.15.
For `COc1cc2c(cc1OC)[C@@H]1Cc3ccc(OC)c(OC)c3CN1CC2` the same measures were 1.4 ± 0.42 and 0.877 ± 0.29.
Taken in the same sequence, the figures for `O=C(O)C[C@H](O)C[C@H](O)/C=C/c1c(C2CC2)nc2ccccc2c1-c1ccc(F)cc1` [Pitavastatin (Calcium)] were 0.903 ± 0.1 and 1.04 ± 0.23.
Turning to `C[C@@H]1O[C@@H](OC[C@H]2O[C@@H](Oc3cc(O)c4c(c3)O[C@H](c3ccc(O)c(O)c3)CC4=O)[C@H](O)[C@@H](O)[C@@H]2O)[C@H](O)[C@H](O)[C@H]1O` [Eriocitrin], the cell count runs as follows: (compound dose 1 µM) 1.2 ± 0.092; (compound dose 5 µM) 1.01 ± 0.098.
`Cc1ccc(NCCN(C)CCNc2ccnc3cc(Cl)ccc23)c2c(=O)c3ccccc3sc12`: the cell count runs as follows: (compound dose 1 µM) 1.09 ± 0.075; (compound dose 5 µM) 1.04 ± 0.07.
Taken in the same sequence, the figures for `N#CCCCSC(=N)N` [Kevetrin (hydrochloride)] were 1.16 ± 0.14 and 1.09 ± 0.11.
Taken in the same sequence, the figures for `COc1nc(C)cnc1NS(=O)(=O)c1cccnc1-c1ccc(-c2nnco2)cc1` [Zibotentan] were 0.813 ± 0.041 and 0.88 ± 0.035.
Taken in the same sequence, the figures for `O=C(NCc1ccc2c(c1)OCO2)c1c(Cl)cccc1Cl` were 1.13 ± 0.019 and 1.15 ± 0.067.
On to `Nc1ccccc1NC(=O)CCCCCCC(=O)Nc1ccccc1`, for which the cell count by setting is: (compound dose 1 µM) 1.02 ± 0.018; (compound dose 5 µM) 0.897 ± 0.038.
For `NC(=O)Nc1sc(-c2ccc(F)cc2)cc1C(N)=O` the same measures were 1.01 ± 0.15 and 0.598 ± 0.39.
For `COC(=O)CCCCC(=O)NCCN1C(=O)c2cccc3c(Sc4ccc(Br)cc4)ccc(c23)C1=O` the same measures were 1.08 ± 0.08 and 0.987 ± 0.16.
Taken in the same sequence, the figures for `COc1cc2c(cc1OC)-c1c(C)c3ccc(OC)c(OC)c3c[n+]1CC2` [Dehydrocorydaline] were 1.22 ± 0.18 and 1.13 ± 0.16.
For `Cc1nn(C)c(COc2ccc(N3CCN(S(=O)(=O)N(C)C)CC3)cc2)c1-c1cccc2c(CCCOc3cccc4ccccc34)c(C(=O)O)n(CCN3CCOCC3)c12`, the cell count came to 1.24 ± 0.16 (compound dose 1 µM) and 1.14 ± 0.027 (compound dose 5 µM).
Taken in the same sequence, the figures for `C[C@@H]1O[C@@H](OC[C@H]2O[C@@H](Oc3c(-c4ccc(O)c(O)c4)oc4cc(O)cc(O)c4c3=O)[C@H](O)[C@@H](O)[C@@H]2O)[C@H](O)[C@H](O)[C@H]1O` [Rutin] were 0.766 ± 0.031 and 0.826 ± 0.14.
As for `Cc1ccc(C(=O)N(CCCN)[C@@H](c2nc3cc(Cl)ccc3c(=O)n2Cc2ccccc2)C(C)C)cc1` [Ispinesib], the cell count by setting is: (compound dose 1 µM) 0.939 ± 0.028; (compound dose 5 µM) 0.272 ± 0.093.
Taken in the same sequence, the figures for `C[C@@H]1O[C@@H](O[C@H]2[C@H](O[C@H]3CC[C@@]4(C)[C@@H](CC[C@]5(C)[C@@H]4CC=C4[C@@H]6CC(C)(C)CC[C@]6(C(=O)O)CC[C@]45C)[C@]3(C)CO)OC[C@H](O[C@@H]3O[C@H](CO)[C@@H](O)[C@H](O)[C@H]3O)[C@@H]2O)[C@H](O)[C@H](O)[C@H]1O` [Pulsatilla saponin D] were 1.049 ± 0.0057 and 0.0575 ± 0.056.
Regarding `CC(C)c1cnn2c(NCc3ccccc3)cc(NC[C@H]3CCNC[C@@H]3O)nc12` [Samuraciclib (hydrochloride)], the cell count reads like this: (compound dose 1 µM) 1.42 ± 0.064; (compound dose 5 µM) 1.24 ± 0.059.
Taken in the same sequence, the figures for `C=C1CCC[C@]2(C)C[C@]3(O)OC(=O)C(C)=C3C[C@@H]12` [Atractylenolide III] were 1.16 ± 0.3 and 1.02 ± 0.33.
For `O=c1c(O[C@@H]2O[C@@H](CO)[C@H](O)[C@H]2O)c(-c2ccc(O)c(O)c2)oc2cc(O)cc(O)c12` [Avicularin] the same measures were 1.371 ± 0.005 and 1.05 ± 0.022.
For `COc1cc2ncnc(Nc3ccc(F)c(Cl)c3)c2cc1NC(=O)/C=C/CN1CCCCC1` the same measures were 1.02 ± 0.024 and 0.514 ± 0.14.
`CC(=O)Oc1cc(C)c(OC(C)=O)c2ccccc12` [Vitamin K4]: the cell count (compound dose 1 µM) stood at 1.11 ± 0.093 and the cell count (compound dose 5 µM) was 0.983 ± 0.092.
For `COCCCOc1ccnc(C[S+]([O-])c2nc3ccccc3[nH]2)c1C` (stereo not drawn) [Rabeprazole (sodium)] the same measures were 0.9625 ± 0.005 and 0.707 ± 0.37.
Taken in the same sequence, the figures for `CC(C)=CCC/C(C)=C\CO` [Nerol] were 0.906 ± 0.072 and 0.622 ± 0.15.
Taken in the same sequence, the figures for `CC[C@H](C)C(=O)O[C@H]1C[C@H](O)C=C2C=C[C@H](C)[C@H](CC[C@@H](O)C[C@@H](O)CC(=O)O)[C@H]21` [Pravastatin (sodium)] were 0.807 ± 0.14 and 0.883 ± 0.17.
`Cc1nc(C)c(C)nc1C` [Tetramethylpyrazine]: the cell count was 1.15 ± 0.061 (compound dose 1 µM) and 0.842 ± 0.044 (compound dose 5 µM).
Consider `Cc1cc([N+](=O)[O-])c(NS(=O)(=O)c2cccc(C(=O)O)c2)cc1-c1cccnc1` [Alofanib], for which the cell count is, setting by setting: (compound dose 1 µM) 1.17 ± 0.23; (compound dose 5 µM) 0.738 ± 0.17.
Take `O=S1(=O)CCN(CN2CCS(=O)(=O)NC2)CN1` [Taurolidine]: the cell count runs as follows: (compound dose 1 µM) 0.879 ± 0.13; (compound dose 5 µM) 0.577 ± 0.18.
For `Cc1ccc(S(=O)(=O)/C=C/C#N)cc1`, the cell count is, setting by setting: (compound dose 1 µM) 0.951 ± 0.035; (compound dose 5 µM) 0.244 ± 0.1.
In the case of `Nc1ccccc1NC(=O)c1ccc(CNc2nccc(-c3cccnc3)n2)cc1` [Mocetinostat (MGCD0103)], the cell count stood at 0.755 ± 0.0078 (compound dose 1 µM) and 0.337 ± 0.17 (compound dose 5 µM).
In the case of `O=C1C(O)=C(O)C(=O)C(O)=C1O`, the cell count (compound dose 1 µM) was 1.44 ± 0.53 and the cell count (compound dose 5 µM) turned out to be 0.941 ± 0.15.
For `Oc1cc(O)cc(/C=C/c2ccc(O)c(O)c2)c1` [Piceatannol], the cell count came to 1.04 ± 0.044 (compound dose 1 µM) and 1.19 ± 0.22 (compound dose 5 µM).
Taken in the same sequence, the figures for `CCN1CCN(c2ccc(Nc3cc(N(C)C(=O)Nc4c(Cl)c(OC)cc(OC)c4Cl)ncn3)cc2)CC1` [Infigratinib] were 0.928 ± 0.033 and 0.86 ± 0.09.
